Measurements from publication PMC7982521, “Studies on the Changes of Pharmacokinetics Behaviors of Phytochemicals and the Influence on Endogenous Metabolites After the Combination of Radix Bupleuri and Radix Paeoniae Alba Based on Multi-Component Pharmacokinetics and Metabolomics” (Frontiers in Pharmacology, 2021).

Tested on: endogenous metabolites
Experiment: Metabolomics: dynamic response of endogenous metabolites in rat plasma after oral RB-RPA (UPLC-HRMS, PCA/PLS-DA/OPLS-DA, relative distance)
Type: in vivo, Sprague-Dawley rats
Settings: mean ± SD, n = 6

| Compound | level of endogenous metabolite normalized by IS (glycyrrhizin) (0.083 h after oral RB-RPA) | level of endogenous metabolite normalized by IS (glycyrrhizin) (0.5 h after oral RB-RPA) | level of endogenous metabolite normalized by IS (glycyrrhizin) (1 h after oral RB-RPA) | level of endogenous metabolite normalized by IS (glycyrrhizin) (1.5 h after oral RB-RPA) | level of endogenous metabolite normalized by IS (glycyrrhizin) (3 h after oral RB-RPA) | level of endogenous metabolite normalized by IS (glycyrrhizin) (5 h after oral RB-RPA) | level of endogenous metabolite normalized by IS (glycyrrhizin) (8 h after oral RB-RPA) | level of endogenous metabolite normalized by IS (glycyrrhizin) (12 h after oral RB-RPA) | level of endogenous metabolite normalized by IS (glycyrrhizin) (24 h after oral RB-RPA) | level of endogenous metabolite normalized by IS (glycyrrhizin) (0.75 h after oral RB-RPA) |
| --- | --- | --- | --- | --- | --- | --- | --- | --- | --- | --- |
| N[C@@H](CCC(=O)O)C(=O)O [L-Glutamic acid] | 0.242±0.033 | 0.294±0.038 | 0.399±0.051 | 0.378±0.072 | 0.449±0.051 | 0.456±0.066 | 0.476±0.083 | 0.418±0.079 | 0.375±0.067 |  |
| N[C@@H](Cc1ccc(O)cc1)C(=O)O [L-Tyrosine] | 5.212±1.453 | 3.206±1.734 | 5.413±1.022 | 5.559±1.183 | 2.645±0.892 | 4.952±1.005 | 5.214±1.325 | 6.525±2.109 | 5.311±1.444 | 6.349±1.349 |
| CC(=O)N[C@@H](CC(C)C)C(=O)O [N-Acetyl-L-leucine] | 0.020±0.004 | 0.019±0.003 | 0.017±0.008 | 0.015±0.007 | 0.024±0.002 | 0.022±0.003 | 0.021±0.03 | 0.016±0.09 | 0.020±0.004 | 0.021±0.002 |
| O=C(O)c1ccccn1 [Picolinic acid] | 0.023±0.006 | 0.039±0.011 | 0.041±0.022 | 0.033±0.009 | 0.043±0.013 | 0.031±0.010 | 0.023±0.009 | 0.016±0.007 | 0.019±0.008 | 0.046±0.014 |
| C[C@H](CCC(=O)NCCS(=O)(=O)O)[C@H]1CC[C@H]2[C@@H]3[C@H](O)C[C@@H]4C[C@H](O)CC[C@]4(C)[C@H]3CC[C@]12C [Taurochenodeoxycholic acid] | 0.013±0005 | 0.012±0.005 | 0.010±0.004 | 0.008±0.001 | 0.007±0.001 | 0.009±0.003 | 0.011±0.004 | 0.008±0.003 | 0.010±0.002 | 0.009±0.002 |
| Cc1cn([C@H]2C[C@H](O)[C@@H](COP(=O)(O)O)O2)c(=O)[nH]c1=O [Thymidine 5'-monophosphate] | 0.121±0.034 | 0.157±0.042 | 0.119±0.042 | 0.123±0.039 | 0.114±0.027 | 0.126±0.033 | 0.119±0.029 | 0.133±0.042 | 0.139±0.038 | 0.128±0.036 |
| CC(C)[C@H](N)C(=O)O [Valine] | 5.508±1.792 | 6.285±1.921 | 8.651±2.624 | 9.214±2.415 | 9.008±2.149 | 8.771±3.012 | 7.363±3.131 | 6.411±2.341 | 5.913±2.041 | 7.021±2.191 |
| NCCCC(=O)O [gamma-Aminobutyric acid] | 0.057±0.016 | 0.078±0.021 | 0.091±0.033 | 0.121±0.038 | 0.109±0.031 | 0.092±0.034 | 0.112±0.044 | 0.074±0.024 | 0.055±0.020 | 0.084±0.029 |
